Results are given in words; binding and its absence hold for the method and conditions named. Binding can be weak; no strength is given.
Molecular target: MBP-Gαt327–350 (UniProt P04695)
Experiment: crystal structure; Ric8A1–492/MBP-Gαt327–350 complex, 0.1 M MIB buffer, 25% PEG3350, pH 8.0, 18 °C; both purified

Sequences of proteins named here, by UniProt entry; tags and fusion partners are left off. A change or cut given only in a name is not applied to a line headed by its entry. Residues count along the entry.
UniProt P04695, residues 327-350: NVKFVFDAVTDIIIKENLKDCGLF
UniProt Q5E9J8: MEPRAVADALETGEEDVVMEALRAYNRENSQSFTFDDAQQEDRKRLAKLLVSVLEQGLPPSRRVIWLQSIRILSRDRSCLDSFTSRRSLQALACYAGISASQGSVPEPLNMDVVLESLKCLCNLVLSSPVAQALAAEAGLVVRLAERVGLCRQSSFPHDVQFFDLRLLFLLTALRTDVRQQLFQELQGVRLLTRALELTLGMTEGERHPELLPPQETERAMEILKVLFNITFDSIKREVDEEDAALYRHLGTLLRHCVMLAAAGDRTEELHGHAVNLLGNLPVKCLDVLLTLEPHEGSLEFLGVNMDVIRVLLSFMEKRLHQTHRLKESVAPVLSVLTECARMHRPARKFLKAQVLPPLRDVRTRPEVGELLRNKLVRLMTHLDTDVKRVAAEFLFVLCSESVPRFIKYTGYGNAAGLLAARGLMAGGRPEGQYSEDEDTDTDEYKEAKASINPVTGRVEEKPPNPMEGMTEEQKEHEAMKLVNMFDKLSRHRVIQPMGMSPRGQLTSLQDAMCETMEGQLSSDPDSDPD

Substance: bovine Ric8A1–492 with an N-terminal His6-tag, as crystallised (from UniProt Q5E9J8) (domain or fragment)
- binding: binds
